In article PMC4231747:
No constants are given. Whether binding was seen depends on the method and setting. In cells and extracts the contact can be indirect. Here binding means that the protein was enriched with, or labelled near, the bait; the list need not be complete. Each block holds one binder with its values, some of them ahead of it.

By UniProt entry, the sequences of proteins in these tests, tags left out.
UniProt P40160: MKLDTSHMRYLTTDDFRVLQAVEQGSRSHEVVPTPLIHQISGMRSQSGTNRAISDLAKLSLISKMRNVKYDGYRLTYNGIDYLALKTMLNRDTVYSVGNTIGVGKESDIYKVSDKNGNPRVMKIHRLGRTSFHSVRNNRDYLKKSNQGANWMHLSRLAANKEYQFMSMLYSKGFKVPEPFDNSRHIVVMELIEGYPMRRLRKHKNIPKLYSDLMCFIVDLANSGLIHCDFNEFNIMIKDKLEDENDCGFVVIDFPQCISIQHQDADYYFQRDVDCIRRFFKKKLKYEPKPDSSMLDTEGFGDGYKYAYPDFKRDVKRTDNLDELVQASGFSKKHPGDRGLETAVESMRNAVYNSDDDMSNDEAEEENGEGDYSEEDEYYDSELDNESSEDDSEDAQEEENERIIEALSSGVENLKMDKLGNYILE

Experiments:
Assay in all cases: affinity purification with mass spectrometry; pre-ribosomal particles purified from yeast by the tagged bait (Nob1-HTP, Pno1-TAP, Rio2-TAP, Rio1-TAP), fractionated on a Superose 6 gel filtration column; elution fractions 1-5 digested and analysed by LC-MS/MS
[1] = target: T1, Nob1-HTP (S. cerevisiae) (UniProt Q08444)
T1 sequence: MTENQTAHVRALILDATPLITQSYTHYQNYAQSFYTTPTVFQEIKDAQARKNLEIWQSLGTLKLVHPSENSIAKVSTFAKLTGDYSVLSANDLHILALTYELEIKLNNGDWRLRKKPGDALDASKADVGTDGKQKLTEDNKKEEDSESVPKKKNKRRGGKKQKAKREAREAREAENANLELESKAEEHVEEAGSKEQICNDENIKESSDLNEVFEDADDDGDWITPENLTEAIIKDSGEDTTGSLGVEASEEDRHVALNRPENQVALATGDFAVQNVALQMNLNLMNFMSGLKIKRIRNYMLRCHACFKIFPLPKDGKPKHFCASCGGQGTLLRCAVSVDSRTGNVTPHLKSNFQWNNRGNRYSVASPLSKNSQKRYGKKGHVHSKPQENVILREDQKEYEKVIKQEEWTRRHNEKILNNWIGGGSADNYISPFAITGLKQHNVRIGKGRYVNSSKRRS

[2] = target: T2, Pno1-TAP (S. cerevisiae) (UniProt Q99216)
T2 sequence: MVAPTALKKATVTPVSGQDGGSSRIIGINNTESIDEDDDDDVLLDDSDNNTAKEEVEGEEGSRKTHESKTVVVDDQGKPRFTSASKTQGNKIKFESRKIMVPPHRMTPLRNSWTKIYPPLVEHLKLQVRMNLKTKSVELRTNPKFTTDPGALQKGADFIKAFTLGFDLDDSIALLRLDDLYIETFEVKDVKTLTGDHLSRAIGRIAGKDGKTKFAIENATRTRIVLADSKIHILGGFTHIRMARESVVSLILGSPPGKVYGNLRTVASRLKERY

[3] = target: Rio2-TAP (S. cerevisiae) (UniProt P40160)
[4] = target: T3, Nob1-HTP (S. cerevisiae), Q08444; settings: remark: other sources report otherwise
T3 chain: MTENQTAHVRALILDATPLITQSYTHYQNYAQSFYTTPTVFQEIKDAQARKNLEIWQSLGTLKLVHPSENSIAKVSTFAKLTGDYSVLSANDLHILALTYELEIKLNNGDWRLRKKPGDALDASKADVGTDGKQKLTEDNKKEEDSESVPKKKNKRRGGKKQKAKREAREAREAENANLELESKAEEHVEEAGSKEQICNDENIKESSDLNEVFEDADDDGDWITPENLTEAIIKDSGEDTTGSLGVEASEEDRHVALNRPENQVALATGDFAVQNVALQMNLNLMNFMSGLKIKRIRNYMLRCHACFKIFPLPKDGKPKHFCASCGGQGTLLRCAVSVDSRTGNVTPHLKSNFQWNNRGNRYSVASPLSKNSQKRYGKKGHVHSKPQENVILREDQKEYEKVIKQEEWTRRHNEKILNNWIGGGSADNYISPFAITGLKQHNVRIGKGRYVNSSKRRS

[5] = target: T4, Rio1-TAP (S. cerevisiae), Q12196; settings: remark: other sources report otherwise
T4 chain: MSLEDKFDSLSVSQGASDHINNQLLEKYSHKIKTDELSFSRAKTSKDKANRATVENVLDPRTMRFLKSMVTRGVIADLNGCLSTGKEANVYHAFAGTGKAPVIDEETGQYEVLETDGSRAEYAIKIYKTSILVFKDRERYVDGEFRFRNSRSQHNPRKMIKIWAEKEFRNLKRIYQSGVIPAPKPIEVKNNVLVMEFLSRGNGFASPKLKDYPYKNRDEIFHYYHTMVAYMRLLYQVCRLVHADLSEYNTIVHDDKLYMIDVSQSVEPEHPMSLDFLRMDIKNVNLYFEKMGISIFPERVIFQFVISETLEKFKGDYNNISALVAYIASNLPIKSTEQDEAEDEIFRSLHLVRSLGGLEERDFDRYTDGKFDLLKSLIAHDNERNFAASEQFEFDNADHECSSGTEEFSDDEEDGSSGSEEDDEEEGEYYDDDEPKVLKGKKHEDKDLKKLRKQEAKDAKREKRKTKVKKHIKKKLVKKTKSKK

[6] = target: T5, Pno1-TAP (S. cerevisiae), Q99216; settings: remark: other sources report otherwise
T5 chain: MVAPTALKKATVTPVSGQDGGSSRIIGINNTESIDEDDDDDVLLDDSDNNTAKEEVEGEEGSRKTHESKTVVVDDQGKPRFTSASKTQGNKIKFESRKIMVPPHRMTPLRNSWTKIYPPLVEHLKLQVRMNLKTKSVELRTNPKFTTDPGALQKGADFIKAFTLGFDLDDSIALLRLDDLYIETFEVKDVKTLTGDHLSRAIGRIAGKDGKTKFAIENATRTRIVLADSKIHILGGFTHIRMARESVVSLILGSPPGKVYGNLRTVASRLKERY

binding [1]: binds
binding [2]: binds
binding [3]: binds
B1: Enp1 (protein, UniProt P38333 1-483)
chain: MARASSTKARKQRHDPLLKDLDAAQGTLKKINKKKLAQNDAANHDAANEEDGYIDSKASRKILQLAKEQQDEIEGEELAESERNKQFEARFTTMSYDDEDEDEDEDEEAFGEDISDFEPEGDYKEEEEIVEIDEEDAAMFEQYFKKSDDFNSLSGSYNLADKIMASIREKESQVEDMQDDEPLANEQNTSRGNISSGLKSGEGVALPEKVIKAYTTVGSILKTWTHGKLPKLFKVIPSLRNWQDVIYVTNPEEWSPHVVYEATKLFVSNLTAKESQKFINLILLERFRDNIETSEDHSLNYHIYRAVKKSLYKPSAFFKGFLFPLVETGCNVREATIAGSVLAKVSVPALHSSAALSYLLRLPFSPPTTVFIKILLDKKYALPYQTVDDCVYYFMRFRILDDGSNGEDATRVLPVIWHKAFLTFAQRYKNDITQDQRDFLLETVRQRGHKDIGPEIRRELLAGASREFVDPQEANDDLMIDVN

binding [2]: binds
binding [3]: binds
B2: Tsr1 (protein, UniProt Q07381 1-788)
chain: MAGHSHRSSLKNGHKSYKSKHASKGALKRLYKGKVEKEPVGTGKPDKQVSKLQRKNKAKQLRAQRILDSIENRKLFEGKNGAAKIITIVPLVNDLDPLDILYKLLKCADDEGIMVQEVDSKRIFNVHIKKFKSNLKIIIPDMTNFLNILDCAKVADFVVFGLSGVQEVDEEFGEQIIRALELQGIASYIGVISNLSAVHEKEKFQLDVKQSLESYFKHFFPSEERVYNLEKNSDALNVLRTLCQRLPRSINWRDNRGYVVADFVDFVETSPDSGDLVIEGTVRGIGFNANRLVHIPDFGDFQLNKIEKISESSQKRKIIKEKATDSLSLELDLQTVFESNMNRDTLDEYAPEGTEDWSDYDEDFEYDGLTTARYDDHGFLPGREQTSKKAAVPKGTSDYQAKWYLDDVIDANEEEEAEQTNGKDETMMEIDDEMMVEQDNEEVAGDEEYDIEDNEGFEELSPEEEERQLREFRDMEKEDREFPDEIELEPSESAIERLKRYRGLKNLYNCDWQVDEKDPSSPAEWKRLLRIGNYKNTKNRIIKETKNEAQAIAGDRIRMFIRFPKFLLEKIQDPKQLLFAVYGLLLHEHKNAVVNFSLQRWEQYDKPVPSQEPIVVQYGVRRYTIQPLFSQGSNSPNNVHKYERFLHPDTVSVATCIAPVDFTQSPAIFFKPSPTDAKNIELIGHGTFLNADHSRILAKRAILTGHPFRFHKTVVTVRYMFFRPEDVEWFKSIPLFTKSGRSGFIKESLGTHGYFKATFDGKLSAQDVVAMSLYKRMWPMPSLPWNGM

binding [4]: binds
B3: Tsr1, Q07381 1-788 (protein)
chain: MAGHSHRSSLKNGHKSYKSKHASKGALKRLYKGKVEKEPVGTGKPDKQVSKLQRKNKAKQLRAQRILDSIENRKLFEGKNGAAKIITIVPLVNDLDPLDILYKLLKCADDEGIMVQEVDSKRIFNVHIKKFKSNLKIIIPDMTNFLNILDCAKVADFVVFGLSGVQEVDEEFGEQIIRALELQGIASYIGVISNLSAVHEKEKFQLDVKQSLESYFKHFFPSEERVYNLEKNSDALNVLRTLCQRLPRSINWRDNRGYVVADFVDFVETSPDSGDLVIEGTVRGIGFNANRLVHIPDFGDFQLNKIEKISESSQKRKIIKEKATDSLSLELDLQTVFESNMNRDTLDEYAPEGTEDWSDYDEDFEYDGLTTARYDDHGFLPGREQTSKKAAVPKGTSDYQAKWYLDDVIDANEEEEAEQTNGKDETMMEIDDEMMVEQDNEEVAGDEEYDIEDNEGFEELSPEEEERQLREFRDMEKEDREFPDEIELEPSESAIERLKRYRGLKNLYNCDWQVDEKDPSSPAEWKRLLRIGNYKNTKNRIIKETKNEAQAIAGDRIRMFIRFPKFLLEKIQDPKQLLFAVYGLLLHEHKNAVVNFSLQRWEQYDKPVPSQEPIVVQYGVRRYTIQPLFSQGSNSPNNVHKYERFLHPDTVSVATCIAPVDFTQSPAIFFKPSPTDAKNIELIGHGTFLNADHSRILAKRAILTGHPFRFHKTVVTVRYMFFRPEDVEWFKSIPLFTKSGRSGFIKESLGTHGYFKATFDGKLSAQDVVAMSLYKRMWPMPSLPWNGM

binding [2]: binds
B4: Ltv1 (protein, UniProt P34078 1-463)
chain: MSKKFSSKNSQRYVVVHRPHDDPSFYDTDASAHVLVPVSNPNKTSPEADLRKKDVSSTKPKGRRAHVGEAALYGINFDDSEYDYTQHLKPIGLDPENSIFIASKGNEQKVEKKNIEDLFIEPKYRRDEIEKDDALPVFQRGMAKPEYLLHQQDTTDEIRGFKPDMNPALREVLEALEDEAYVVNDDVVVEDISKKTQLQGDNYGEEEKEDDIFAQLLGSGEAKDEDEFEDEFDEWDIDNVENFEDENYVKEMAQFDNIENLEDLENIDYQADVRRFQKDNSILEKHNSDDEFSNAGLDSVNPSEEEDVLGELPSIQDKSKTGKKKRKSRQKKGAMSDVSGFSMSSSAIARTETMTVLDDQYDQIINGYENYEEELEEDEEQNYQPFDMSAERSDFESMLDDFLDNYELESGGRKLAKKDKEIERLKEAADEVSKGKLSQRRNRERQEKKKLEKVTNTLSSLKF

binding [5]: binds
B5: Pno1, Q99216 1-274 (protein)
chain: MVAPTALKKATVTPVSGQDGGSSRIIGINNTESIDEDDDDDVLLDDSDNNTAKEEVEGEEGSRKTHESKTVVVDDQGKPRFTSASKTQGNKIKFESRKIMVPPHRMTPLRNSWTKIYPPLVEHLKLQVRMNLKTKSVELRTNPKFTTDPGALQKGADFIKAFTLGFDLDDSIALLRLDDLYIETFEVKDVKTLTGDHLSRAIGRIAGKDGKTKFAIENATRTRIVLADSKIHILGGFTHIRMARESVVSLILGSPPGKVYGNLRTVASRLKERY

binding [6]: binds
B6: Dim1, P41819 1-318 (protein)
chain: MGKAAKKKYSGATSSKQVSAEKHLSSVFKFNTDLGQHILKNPLVAQGIVDKAQIRPSDVVLEVGPGTGNLTVRILEQAKNVVAVEMDPRMAAELTKRVRGTPVEKKLEIMLGDFMKTELPYFDICISNTPYQISSPLVFKLINQPRPPRVSILMFQREFALRLLARPGDSLYCRLSANVQMWANVTHIMKVGKNNFRPPPQVESSVVRLEIKNPRPQVDYNEWDGLLRIVFVRKNRTISAGFKSTTVMDILEKNYKTFLAMNNEMVDDTKGSMHDVVKEKIDTVLKETDLGDKRAGKCDQNDFLRLLYAFHQVGIHFS

binding [5]: binds
B7: endogenous Nob1, Q08444 1-459 (enzyme)
chain: MTENQTAHVRALILDATPLITQSYTHYQNYAQSFYTTPTVFQEIKDAQARKNLEIWQSLGTLKLVHPSENSIAKVSTFAKLTGDYSVLSANDLHILALTYELEIKLNNGDWRLRKKPGDALDASKADVGTDGKQKLTEDNKKEEDSESVPKKKNKRRGGKKQKAKREAREAREAENANLELESKAEEHVEEAGSKEQICNDENIKESSDLNEVFEDADDDGDWITPENLTEAIIKDSGEDTTGSLGVEASEEDRHVALNRPENQVALATGDFAVQNVALQMNLNLMNFMSGLKIKRIRNYMLRCHACFKIFPLPKDGKPKHFCASCGGQGTLLRCAVSVDSRTGNVTPHLKSNFQWNNRGNRYSVASPLSKNSQKRYGKKGHVHSKPQENVILREDQKEYEKVIKQEEWTRRHNEKILNNWIGGGSADNYISPFAITGLKQHNVRIGKGRYVNSSKRRS
